{"sequences": {"note": "Sequences of proteins named here, by UniProt entry; tags and fusion partners are left off.", "UniProt O55242": "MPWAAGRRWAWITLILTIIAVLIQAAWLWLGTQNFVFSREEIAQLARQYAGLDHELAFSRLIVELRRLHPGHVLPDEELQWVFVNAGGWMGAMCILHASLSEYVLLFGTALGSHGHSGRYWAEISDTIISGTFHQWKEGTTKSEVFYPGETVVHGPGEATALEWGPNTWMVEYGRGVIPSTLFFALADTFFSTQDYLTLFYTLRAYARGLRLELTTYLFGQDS"}, "source": "paper PMC8615847", "key": {"[1]": {"target": "glutamate NMDA receptor NR1 subunit (mouse (endogenous in PAG and spinal cord)) (UniProt P35438)", "assay": "co-IP; as a1, NR1 precipitated from the PAG of sham-operated 129 WT mice, blot for σ1R"}, "[2]": {"target": "glutamate NMDA receptor NR1 subunit (mouse (endogenous in PAG and spinal cord)) (UniProt P35438)", "assay": "co-IP; mouse PAG synaptosomal membranes (P2) solubilised in 1% Nonidet P-40, 50 mM Tris-HCl pH 7.5, 50 mM NaCl; biotinylated IgGs against NR1, NR2A or NR2B overnight at 4 °C, streptavidin agarose; reducing SDS-PAGE and Western blot; CD1 and 129 mice, wild type, σ1R^−/− or HINT1^−/−, naive, sham or CCI, with or without S1RA and other drugs icv"}}, "note": "No constants are given. Whether binding was seen depends on the method and setting. In cells and extracts the contact can be indirect. Some binding calls cover weakened binding; strength is not graded here.", "data": [{"substance": "sigma 1 receptor (endogenous) (from UniProt O55242 1-223)", "values": [{"measurement": "binding", "setting": "[1]", "result": "binds weakly"}, {"measurement": "binding", "setting": "[2]", "result": "binds"}]}]}
